{"source": "PubChem BioAssay AID1159578 – Peter MacCallum Cancer Centre, 2015", "assay": "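siRNA pools altering how lymphatic endothelial cells close a scratch wound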 (primary screen)", "system": "human lymphatic endothelial cells", "knock-down reagent": "siRNA pool against human genes, 40 nM", "time to read-out": "48 h after transfection", "read-out": "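Cells stained with dye and imaged after a scratch; covered wound area and nuclei counted, duplicates averaged, migration set against mock wells and turned into a robust z-score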", "direction": "migration robust z-score: higher = faster migration into the scratch; nuclei per well: higher = more cells in the well", "active means": "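Pools averaging fewer than 3300 nuclei are never called; remaining pools count as changed when migration robust z lies outside -2 to 2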", "calls": "active = migration changed; inactive = no migration change, or too few cells", "note": "Shown is a random part of about 18,000 reagents. In the full data, about 1,030 (5.7%) were called active. 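Inactive calls also include pools with fewer than 3300 nuclei, whose migration was not assessed.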 Raw values are not corrected between plates. Further read-outs or replicates are left out here."}
{"Target gene":"STK17A","PubChem SID":"SID255354155","migration robust z-score":-0.5,"nuclei per well, duplicate mean":5581,"call":"inactive"}
{"Target gene":"PCDHA11","PubChem SID":"SID255359024","migration robust z-score":-1.04,"nuclei per well, duplicate mean":3538,"call":"inactive"}
{"Target gene":"WDPCP","PubChem SID":"SID255357435","migration robust z-score":-1.04,"nuclei per well, duplicate mean":4384,"call":"inactive"}
{"Target gene":"CDC40","PubChem SID":"SID255357675","migration robust z-score":0.31,"nuclei per well, duplicate mean":5438,"call":"inactive"}
{"Target gene":"SF3B1","PubChem SID":"SID255356250","migration robust z-score":-3,"nuclei per well, duplicate mean":5720,"call":"active"}
{"Target gene":"SERPINC1","PubChem SID":"SID255348431","migration robust z-score":0.08,"nuclei per well, duplicate mean":5738,"call":"inactive"}
{"Target gene":"ZNF790","PubChem SID":"SID255365495","migration robust z-score":-0.84,"nuclei per well, duplicate mean":7008,"call":"inactive"}
{"Target gene":"ZNF385B","PubChem SID":"SID255363480","migration robust z-score":-1.38,"nuclei per well, duplicate mean":4286,"call":"inactive"}
{"Target gene":"FZD6","PubChem SID":"SID255353469","migration robust z-score":0.78,"nuclei per well, duplicate mean":6564,"call":"inactive"}
{"Target gene":"MAPKAPK5","PubChem SID":"SID255353641","migration robust z-score":0.44,"nuclei per well, duplicate mean":5452,"call":"inactive"}
{"Target gene":"AKIRIN2","PubChem SID":"SID255358427","migration robust z-score":0.86,"nuclei per well, duplicate mean":5006,"call":"inactive"}
{"Target gene":"ST6GALNAC4","PubChem SID":"SID255356911","migration robust z-score":0.57,"nuclei per well, duplicate mean":6006,"call":"inactive"}
{"Target gene":"GPR152","PubChem SID":"SID255365633","migration robust z-score":-2.46,"nuclei per well, duplicate mean":3384,"call":"active"}
{"Target gene":"TRIM17","PubChem SID":"SID255357500","migration robust z-score":-0.78,"nuclei per well, duplicate mean":4990,"call":"inactive"}
{"Target gene":"B4GALT6","PubChem SID":"SID255354196","migration robust z-score":2.25,"nuclei per well, duplicate mean":6613,"call":"active"}
{"Target gene":"IBTK","PubChem SID":"SID255356603","migration robust z-score":-1.59,"nuclei per well, duplicate mean":4588,"call":"inactive"}
{"Target gene":"SYT17","PubChem SID":"SID255357890","migration robust z-score":-1.15,"nuclei per well, duplicate mean":5715,"call":"inactive"}
{"Target gene":"MZB1","PubChem SID":"SID255357580","migration robust z-score":1.66,"nuclei per well, duplicate mean":7036,"call":"inactive"}
{"Target gene":"HTR1E","PubChem SID":"SID255350356","migration robust z-score":-1.29,"nuclei per well, duplicate mean":3908,"call":"inactive"}
{"Target gene":"INIP","PubChem SID":"SID255359638","migration robust z-score":0.94,"nuclei per well, duplicate mean":5616,"call":"inactive"}
{"Target gene":"RASEF","PubChem SID":"SID255363652","migration robust z-score":0.98,"nuclei per well, duplicate mean":5544,"call":"inactive"}

Individual results from above.
FZD6 [SID255353469], migration robust z-score → 0.78
SYT17 [SID255357890], nuclei per well, duplicate mean = 5715
Entry for B4GALT6 [SID255354196] in “nuclei per well, duplicate mean”: 6613
